Results deposited as PubChem BioAssay AID504744 (Drosophila RNAi Screening Center, 2011)

Purpose: 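Uncover factors, including feedback loops, that control dAkt activation in fly cells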 (primary screen)
Cells: Drosophila Kc167 cells
Reagents: long dsRNA against Drosophila genes, 250 ng dsRNA per well of a 384-well plate
Duration: 3 days of knock-down, then overnight serum-free starvation before stimulation
Treatment: bovine insulin at 387 nM for 10 minutes after 12 h without serum
Read-out: 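In-cell antibody fluorescence for phospho-dAkt in each well over DNA-dye signal, with log2 residuals expressed as z-scores adjusted for cell count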
Active means: 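Hit in the insulin screen when the two-replicate mean z-score is more extreme than plus or minus 2.5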
The deposit covers about 23,000 reagents; shown is an unselected part of those with a known target gene and a result. In the full data, 98 (0.43%) got an active call. 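Only hit calls are given; the phospho-dAkt signals, z-scores and hit direction were not deposited.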 Names joined by + are all predicted targets of the reagent.

| predicted target | dsRNA | activity call |
| --- | --- | --- |
| Trpgamma (GeneID 34991) | DRSC03626 | inactive |
| dgrn (GeneID 40725) | DRSC12154 | inactive |
| CG7878 (GeneID 40959) | DRSC16330 | inactive |
| Ipp (GeneID 41701) | DRSC16718 | inactive |
| EndoU (GeneID 41931) | DRSC15472 | inactive |
| tun (GeneID 36743) | DRSC05592 | inactive |
| tun (GeneID 36743) | DRSC07127 | inactive |
| NC2beta (GeneID 34875) | DRSC01895 | inactive |
| CG12081 (GeneID 31799) | DRSC17802 | inactive |
| CG13926 (GeneID 38192) | DRSC08395 | inactive |
| CG6923 (GeneID 41420) | DRSC16136 | inactive |
| Inx7 + cm | DRSC18753 | inactive |
| Galphaq (GeneID 36384) | DRSC07432 | inactive |
| CCT5 (GeneID 36308) | DRSC07357 | inactive |
| GATAd (GeneID 34395) | DRSC02803 | inactive |
| AANATL4 (GeneID 37213) | DRSC06774 | inactive |
| Lcp2 (GeneID 35818) | DRSC07456 | inactive |
| CG32944 (GeneID 40560) | DRSC12138 | inactive |
| CG32944 (GeneID 40560) | DRSC12341 | inactive |
| Spn100A (GeneID 43642) | DRSC14596 | inactive |
| Shc (GeneID 44052) | DRSC11284 | inactive |
| hb (GeneID 41032) | DRSC16963 | inactive |
| CG3337 (GeneID 42519) | DRSC15478 | inactive |
| CG14671 (GeneID 40671) | DRSC12257 | inactive |
| Spc105R (GeneID 40300) | DRSC11663 | inactive |
| CG9184 (GeneID 38152) | DRSC08636 | inactive |
| CG9184 (GeneID 38152) | DRSC22184 | inactive |
| CG5641 (GeneID 41529) | DRSC15852 | inactive |
| CG2124 (GeneID 31989) | DRSC18208 | inactive |
| NetB (GeneID 32400) | DRSC20262 | inactive |
| Mpcp1 (GeneID 37297) | DRSC07337 | inactive |
| Coq2 (GeneID 40988) | DRSC16516 | inactive |
| Coq2 (GeneID 40988) | DRSC21366 | inactive |
| Dhc36C (GeneID 35061) | DRSC03315 | inactive |
| BomS1 (GeneID 37100) | DRSC22678 | inactive |
| CG6607 (GeneID 42925) | DRSC16073 | inactive |
| CG12607 (GeneID 38547) | DRSC08287 | inactive |
| CG31921 (GeneID 319027) | DRSC00013 | inactive |
| CYTB (retired record) (GeneID 192472) | DRSC21272 | inactive |
| CG14689 (GeneID 41283) | DRSC14912 | inactive |
| fal (GeneID 43927) | DRSC11087 | inactive |
| snf (GeneID 31442) | DRSC18835 | inactive |
| OS9 + Hf | DRSC03392 | inactive |
| CG14635 (GeneID 31032) | DRSC17945 | inactive |
| Wnt6 (GeneID 34010) | DRSC02795 | inactive |
| DIP-delta (GeneID 5740816) | DRSC10214 | inactive |
| DIP-delta (GeneID 5740816) | DRSC10450 | inactive |
| Or47a (GeneID 36187) | DRSC07491 | inactive |
| Calx (GeneID 42481) | DRSC13457 | inactive |
| Calx (GeneID 42481) | DRSC13459 | inactive |
| Calx (GeneID 42481) | DRSC16599 | inactive |
| Calx (GeneID 42481) | DRSC21850 | inactive |
| Fdx2 (GeneID 38530) | DRSC08306 | inactive |
| CG7601 (GeneID 43502) | DRSC14131 | inactive |
| dmGlut (GeneID 47253) | DRSC02835 | inactive |
| CG13919 (GeneID 38200) | DRSC08388 | inactive |
| CG34228 (GeneID 5740377) | DRSC05300 | inactive |
| Nle (GeneID 33234) | DRSC00763 | inactive |
| CG5883 (GeneID 39352) | DRSC10552 | inactive |
| Arr1 (GeneID 35078) | DRSC01867 | inactive |
| chas (GeneID 32748) | DRSC19508 | inactive |
| chas (GeneID 32748) | DRSC19509 | inactive |
| Cyp309a2 (GeneID 33439) | DRSC00526 | inactive |
| CG5440 (GeneID 33318) | DRSC00685 | inactive |
| eIF2alpha (GeneID 32617) | DRSC20327 | active |
| CG6231 (GeneID 42339) | DRSC15997 | inactive |
| Gr36c (GeneID 117486) | DRSC02437 | inactive |
| dpr5 (GeneID 41381) | DRSC15766 | inactive |
| CG31886 (GeneID 326170) | DRSC03248 | inactive |
| Cpr67B (GeneID 39081) | DRSC10373 | inactive |
| CG42709 (GeneID 39453) | DRSC10277 | inactive |
| CG14740 (GeneID 41468) | DRSC14960 | inactive |
| PIG-C (GeneID 38410) | DRSC08241 | inactive |
| fusl (GeneID 33765) | DRSC02351 | inactive |
| CG15082 (GeneID 37173) | DRSC06513 | inactive |
| C901 (GeneID 32032) | DRSC19351 | inactive |
| Atf-2 (GeneID 37978) | DRSC04130 | inactive |
| Atf-2 (GeneID 37978) | DRSC04413 | inactive |
| CG7084 (GeneID 42606) | DRSC16194 | inactive |
| CG42553 (GeneID 38094) | DRSC08356 | inactive |
| pyx (GeneID 38037) | DRSC08510 | inactive |
| pyx (GeneID 38037) | DRSC08511 | inactive |
| Usp2 (GeneID 33132) | DRSC20590 | inactive |
| Usp2 (GeneID 33132) | DRSC20632 | inactive |
| Usp2 (GeneID 33132) | DRSC20633 | inactive |
| CkIIalpha-i1 (GeneID 39721) | DRSC11115 | inactive |
| CG11257 (GeneID 37227) | DRSC06068 | inactive |
| mad2 (GeneID 38656) | DRSC10274 | inactive |
| CG17687 (GeneID 39495) | DRSC10279 | inactive |
| Cyp12b2 (GeneID 37163) | DRSC07364 | inactive |
| LManIII (GeneID 34203) | DRSC03221 | inactive |
| cbc (GeneID 36494) | DRSC06957 | inactive |
| Tsc1 (GeneID 42862) | DRSC16890 | active |
| CG10177 (GeneID 42772) | DRSC14201 | inactive |
| CG8191 (GeneID 32511) | DRSC20091 | inactive |
| CG14762 (GeneID 35768) | DRSC05073 | inactive |
| CG14762 (GeneID 35768) | DRSC06496 | inactive |
| CG7065 (GeneID 31844) | DRSC18420 | inactive |
| Pp4-19C (GeneID 45031) | DRSC20559 | inactive |
| Pp4-19C (GeneID 45031) | DRSC21251 | inactive |
| CG18467 (GeneID 36958) | DRSC06758 | inactive |
| Tti1 (GeneID 41189) | DRSC15163 | inactive |
| TotF (GeneID 117461) | DRSC02305 | inactive |
| Stt3A (GeneID 33082) | DRSC20514 | inactive |
| Ptp61F (GeneID 38160) | DRSC08683 | inactive |
| CG3548 (GeneID 37932) | DRSC04387 | inactive |
| skd (GeneID 43906) | DRSC11898 | inactive |
| Xpc (GeneID 36697) | DRSC07654 | inactive |
| Gel (GeneID 46008) | DRSC12350 | inactive |
| CG10681 (GeneID 39425) | DRSC09777 | inactive |
| CG10681 (GeneID 39425) | DRSC21484 | inactive |
| CG9395 (GeneID 34742) | DRSC03218 | inactive |
| CG14968 (GeneID 38406) | DRSC08427 | inactive |
| CG30056 (GeneID 246422) | DRSC21752 | inactive |
| CG7707 (GeneID 39923) | DRSC10903 | inactive |
| CG13884 (GeneID 38064) | DRSC08354 | inactive |
| Slmap (GeneID 3355127) | DRSC03799 | inactive |
| CG3513 (GeneID 33590) | DRSC00608 | inactive |
| CG10862 (GeneID 38437) | DRSC08170 | inactive |
| CG42335 (GeneID 42558) | DRSC14597 | inactive |
| CG42335 (GeneID 42558) | DRSC15892 | inactive |
| CG14667 (GeneID 40643) | DRSC12253 | inactive |
| CG6294 + CG6299 + CG15642 | DRSC19981 | inactive |
| CG42493 (GeneID 8674013) | DRSC05309 | inactive |
| dx (GeneID 31589) | DRSC18767 | inactive |
| BI-1 (GeneID 38936) | DRSC10782 | inactive |
| CG14234 (GeneID 32988) | DRSC19317 | inactive |
| CG14234 (GeneID 32988) | DRSC19589 | inactive |
| Lcp65Ad (GeneID 38707) | DRSC11211 | inactive |
| CG12519 (GeneID 40114) | DRSC10311 | inactive |
| CG12519 (GeneID 40114) | DRSC21549 | inactive |
| CG3918 (GeneID 31585) | DRSC18331 | inactive |
| RpL4 (GeneID 43349) | DRSC16833 | inactive |
| CG3104 (GeneID 33486) | DRSC00567 | inactive |
| CG31528 (GeneID 318785) | DRSC12003 | inactive |
| smid (GeneID 38824) | DRSC11398 | inactive |
| sqz (GeneID 42300) | DRSC16980 | inactive |
| CG7856 (GeneID 35533) | DRSC04896 | inactive |
| CG17724 (GeneID 246682) | DRSC06687 | inactive |
| CG32026 (GeneID 317829) | DRSC08950 | inactive |
| snoRNA:Me28S-C3227a + snoRNA:Me18S-A1061 + snoRNA:Me28S-C3227b + 7 more | DRSC05497 | inactive |
| CG4935 (GeneID 34955) | DRSC01924 | inactive |
| Hmu (GeneID 43294) | DRSC16705 | inactive |
| CG17167 (GeneID 3354991) | DRSC20902 | inactive |
| CG17167 (GeneID 3354991) | DRSC20903 | inactive |
| Idgf3 (GeneID 34981) | DRSC03351 | inactive |
| CG16826 (GeneID 34741) | DRSC02527 | inactive |
| CG42323 (GeneID 32825) | DRSC19629 | inactive |
| CG42323 (GeneID 32825) | DRSC21397 | inactive |
| CG11370 (GeneID 40486) | DRSC11653 | inactive |
| CG13428 (GeneID 37317) | DRSC06390 | inactive |
| CG34367 (GeneID 5740879) | DRSC02238 | inactive |
| CG34367 (GeneID 5740879) | DRSC02850 | inactive |
| CG11162 (GeneID 32325) | DRSC19391 | inactive |
| CG11162 (GeneID 32325) | DRSC22538 | inactive |
| CG33262 (GeneID 2768975) | DRSC22893 | inactive |
| CG7140 (GeneID 40445) | DRSC11799 | inactive |
